Measured values from the supplement of paper PMC12067093, “Discovery and optimisation of a covalent ligand for TRIM25 and its application to targeted protein ubiquitination” (Chemical Science, 2025).
The other results are listed elsewhere or left out.

The chains behind the UniProt entries cited, without tags or fusion partners. Where a name states a change or a piece, a line headed by the entry shows the natural chain unless it says otherwise.
UniProt Q8N1G4: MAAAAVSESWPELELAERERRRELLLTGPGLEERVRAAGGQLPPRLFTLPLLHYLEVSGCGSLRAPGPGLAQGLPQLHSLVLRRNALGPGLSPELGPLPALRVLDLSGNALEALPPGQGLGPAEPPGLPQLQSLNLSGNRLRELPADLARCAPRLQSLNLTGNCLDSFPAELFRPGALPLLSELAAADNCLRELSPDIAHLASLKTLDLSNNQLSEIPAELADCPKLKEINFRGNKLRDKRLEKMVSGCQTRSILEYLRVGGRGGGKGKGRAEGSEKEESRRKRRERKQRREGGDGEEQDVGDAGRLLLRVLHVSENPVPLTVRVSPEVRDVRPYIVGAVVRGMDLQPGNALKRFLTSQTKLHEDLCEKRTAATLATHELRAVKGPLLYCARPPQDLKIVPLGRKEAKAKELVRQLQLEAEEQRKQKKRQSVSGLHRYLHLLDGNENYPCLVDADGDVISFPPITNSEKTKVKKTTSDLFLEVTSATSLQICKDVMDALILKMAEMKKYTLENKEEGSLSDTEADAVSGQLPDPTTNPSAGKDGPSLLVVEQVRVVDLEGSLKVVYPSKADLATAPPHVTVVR
UniProt Q07954: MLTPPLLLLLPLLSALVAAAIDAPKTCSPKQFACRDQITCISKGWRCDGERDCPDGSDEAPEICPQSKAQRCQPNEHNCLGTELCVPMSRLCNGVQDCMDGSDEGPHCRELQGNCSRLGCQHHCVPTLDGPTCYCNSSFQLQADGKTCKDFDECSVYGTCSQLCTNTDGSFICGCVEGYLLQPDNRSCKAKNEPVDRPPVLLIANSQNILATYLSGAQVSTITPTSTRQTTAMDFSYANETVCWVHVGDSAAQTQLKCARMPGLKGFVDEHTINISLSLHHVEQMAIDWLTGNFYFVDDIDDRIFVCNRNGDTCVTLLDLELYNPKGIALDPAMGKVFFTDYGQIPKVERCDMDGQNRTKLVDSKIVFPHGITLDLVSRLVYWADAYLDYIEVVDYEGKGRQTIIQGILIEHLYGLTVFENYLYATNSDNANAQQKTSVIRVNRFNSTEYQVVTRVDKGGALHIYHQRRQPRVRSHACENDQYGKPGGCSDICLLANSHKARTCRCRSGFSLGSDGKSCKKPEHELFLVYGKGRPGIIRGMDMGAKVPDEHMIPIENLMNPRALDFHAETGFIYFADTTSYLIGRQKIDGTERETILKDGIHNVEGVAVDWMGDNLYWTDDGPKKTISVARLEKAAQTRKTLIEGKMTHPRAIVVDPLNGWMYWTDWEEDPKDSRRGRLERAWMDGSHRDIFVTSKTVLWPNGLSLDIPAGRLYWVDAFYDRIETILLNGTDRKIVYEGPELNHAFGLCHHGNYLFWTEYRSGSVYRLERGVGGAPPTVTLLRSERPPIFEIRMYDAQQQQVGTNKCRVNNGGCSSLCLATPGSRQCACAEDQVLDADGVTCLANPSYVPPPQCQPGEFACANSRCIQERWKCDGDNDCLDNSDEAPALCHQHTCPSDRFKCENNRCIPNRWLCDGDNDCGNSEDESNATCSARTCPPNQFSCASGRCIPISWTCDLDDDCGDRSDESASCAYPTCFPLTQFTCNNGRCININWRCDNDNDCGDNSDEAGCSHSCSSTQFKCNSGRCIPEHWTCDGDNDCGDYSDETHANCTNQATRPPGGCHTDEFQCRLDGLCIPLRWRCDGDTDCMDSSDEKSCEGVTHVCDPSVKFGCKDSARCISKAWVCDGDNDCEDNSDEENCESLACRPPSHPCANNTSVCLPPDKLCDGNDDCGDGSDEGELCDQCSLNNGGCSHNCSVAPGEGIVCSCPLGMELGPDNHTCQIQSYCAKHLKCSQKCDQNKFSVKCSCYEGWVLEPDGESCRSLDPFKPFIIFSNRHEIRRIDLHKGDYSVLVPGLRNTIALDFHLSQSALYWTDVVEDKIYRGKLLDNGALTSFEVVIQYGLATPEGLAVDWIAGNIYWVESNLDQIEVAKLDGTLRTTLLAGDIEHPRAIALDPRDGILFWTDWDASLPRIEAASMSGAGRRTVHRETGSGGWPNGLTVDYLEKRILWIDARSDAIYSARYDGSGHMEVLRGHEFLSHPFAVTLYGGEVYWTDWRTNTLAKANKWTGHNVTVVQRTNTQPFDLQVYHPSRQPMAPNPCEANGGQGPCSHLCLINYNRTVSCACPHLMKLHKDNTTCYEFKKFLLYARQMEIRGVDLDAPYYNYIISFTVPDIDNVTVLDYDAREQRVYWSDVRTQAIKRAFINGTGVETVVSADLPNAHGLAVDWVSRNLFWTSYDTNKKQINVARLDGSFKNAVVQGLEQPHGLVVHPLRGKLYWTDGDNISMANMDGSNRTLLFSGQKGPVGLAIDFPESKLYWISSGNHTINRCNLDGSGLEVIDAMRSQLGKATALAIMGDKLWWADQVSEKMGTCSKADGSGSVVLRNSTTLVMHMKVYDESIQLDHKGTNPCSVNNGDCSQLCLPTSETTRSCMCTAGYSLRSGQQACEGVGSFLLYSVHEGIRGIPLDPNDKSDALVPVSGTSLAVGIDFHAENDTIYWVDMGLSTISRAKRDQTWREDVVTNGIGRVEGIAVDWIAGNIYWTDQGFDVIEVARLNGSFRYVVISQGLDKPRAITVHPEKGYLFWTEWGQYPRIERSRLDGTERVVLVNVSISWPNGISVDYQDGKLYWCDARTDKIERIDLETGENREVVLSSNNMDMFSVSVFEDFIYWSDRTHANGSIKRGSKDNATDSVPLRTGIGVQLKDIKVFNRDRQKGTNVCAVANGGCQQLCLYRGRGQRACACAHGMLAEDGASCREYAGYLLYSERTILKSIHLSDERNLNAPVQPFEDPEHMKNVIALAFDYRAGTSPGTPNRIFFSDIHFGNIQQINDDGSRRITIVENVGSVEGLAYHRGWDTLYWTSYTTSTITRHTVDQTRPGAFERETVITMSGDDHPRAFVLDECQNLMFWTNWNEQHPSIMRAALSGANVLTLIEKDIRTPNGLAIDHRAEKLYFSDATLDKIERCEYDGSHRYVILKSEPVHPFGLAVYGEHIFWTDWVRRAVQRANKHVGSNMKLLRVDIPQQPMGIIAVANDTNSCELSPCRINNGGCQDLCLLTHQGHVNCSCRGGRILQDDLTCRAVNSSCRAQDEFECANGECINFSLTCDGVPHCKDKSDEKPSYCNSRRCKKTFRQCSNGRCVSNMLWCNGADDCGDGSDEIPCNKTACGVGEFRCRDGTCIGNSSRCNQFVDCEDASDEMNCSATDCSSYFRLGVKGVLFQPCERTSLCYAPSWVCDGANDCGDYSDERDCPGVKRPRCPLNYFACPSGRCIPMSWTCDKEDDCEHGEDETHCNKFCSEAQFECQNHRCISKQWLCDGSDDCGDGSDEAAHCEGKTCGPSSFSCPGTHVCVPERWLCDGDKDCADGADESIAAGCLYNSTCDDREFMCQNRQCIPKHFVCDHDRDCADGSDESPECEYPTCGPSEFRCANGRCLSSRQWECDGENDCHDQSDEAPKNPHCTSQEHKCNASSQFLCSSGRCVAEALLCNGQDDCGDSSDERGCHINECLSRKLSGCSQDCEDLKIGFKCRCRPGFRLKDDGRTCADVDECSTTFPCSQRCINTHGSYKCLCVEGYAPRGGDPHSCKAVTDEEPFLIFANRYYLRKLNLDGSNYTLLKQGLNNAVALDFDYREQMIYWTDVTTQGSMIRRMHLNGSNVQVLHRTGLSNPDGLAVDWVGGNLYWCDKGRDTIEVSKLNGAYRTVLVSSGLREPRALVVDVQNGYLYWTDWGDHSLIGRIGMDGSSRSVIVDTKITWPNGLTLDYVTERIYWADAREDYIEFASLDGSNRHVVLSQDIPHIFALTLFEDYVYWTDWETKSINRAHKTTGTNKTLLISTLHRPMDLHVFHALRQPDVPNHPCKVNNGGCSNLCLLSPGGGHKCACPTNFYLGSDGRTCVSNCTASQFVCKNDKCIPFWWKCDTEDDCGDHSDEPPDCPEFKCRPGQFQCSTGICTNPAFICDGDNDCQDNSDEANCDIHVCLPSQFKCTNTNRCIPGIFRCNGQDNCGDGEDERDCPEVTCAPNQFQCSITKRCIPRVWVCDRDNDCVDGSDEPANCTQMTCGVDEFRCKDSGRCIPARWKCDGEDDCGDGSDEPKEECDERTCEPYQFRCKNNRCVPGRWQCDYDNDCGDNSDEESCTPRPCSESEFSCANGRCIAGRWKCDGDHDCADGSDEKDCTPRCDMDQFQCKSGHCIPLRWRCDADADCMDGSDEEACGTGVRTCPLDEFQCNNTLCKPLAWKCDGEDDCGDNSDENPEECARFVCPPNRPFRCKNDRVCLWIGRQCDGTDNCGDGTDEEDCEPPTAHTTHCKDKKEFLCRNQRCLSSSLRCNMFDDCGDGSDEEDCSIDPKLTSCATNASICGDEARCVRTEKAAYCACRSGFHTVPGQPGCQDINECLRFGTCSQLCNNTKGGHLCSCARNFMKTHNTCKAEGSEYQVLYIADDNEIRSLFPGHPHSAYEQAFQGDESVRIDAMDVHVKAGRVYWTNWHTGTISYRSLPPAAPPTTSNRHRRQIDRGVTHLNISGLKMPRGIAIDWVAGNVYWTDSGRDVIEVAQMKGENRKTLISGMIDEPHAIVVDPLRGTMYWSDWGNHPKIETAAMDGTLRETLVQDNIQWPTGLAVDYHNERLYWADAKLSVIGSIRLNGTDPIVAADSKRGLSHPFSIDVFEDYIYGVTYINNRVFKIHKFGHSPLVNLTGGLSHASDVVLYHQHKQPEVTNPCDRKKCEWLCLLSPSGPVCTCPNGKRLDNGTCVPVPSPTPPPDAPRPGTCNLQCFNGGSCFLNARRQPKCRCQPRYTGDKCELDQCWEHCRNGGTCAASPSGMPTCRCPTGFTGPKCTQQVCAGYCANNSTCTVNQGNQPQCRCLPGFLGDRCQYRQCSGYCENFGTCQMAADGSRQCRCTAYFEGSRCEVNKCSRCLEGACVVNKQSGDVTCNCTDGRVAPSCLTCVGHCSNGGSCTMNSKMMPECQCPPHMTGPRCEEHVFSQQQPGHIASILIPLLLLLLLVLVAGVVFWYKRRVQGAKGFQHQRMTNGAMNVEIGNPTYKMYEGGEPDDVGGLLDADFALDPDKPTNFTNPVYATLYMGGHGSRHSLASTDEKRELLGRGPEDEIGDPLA
UniProt P20700: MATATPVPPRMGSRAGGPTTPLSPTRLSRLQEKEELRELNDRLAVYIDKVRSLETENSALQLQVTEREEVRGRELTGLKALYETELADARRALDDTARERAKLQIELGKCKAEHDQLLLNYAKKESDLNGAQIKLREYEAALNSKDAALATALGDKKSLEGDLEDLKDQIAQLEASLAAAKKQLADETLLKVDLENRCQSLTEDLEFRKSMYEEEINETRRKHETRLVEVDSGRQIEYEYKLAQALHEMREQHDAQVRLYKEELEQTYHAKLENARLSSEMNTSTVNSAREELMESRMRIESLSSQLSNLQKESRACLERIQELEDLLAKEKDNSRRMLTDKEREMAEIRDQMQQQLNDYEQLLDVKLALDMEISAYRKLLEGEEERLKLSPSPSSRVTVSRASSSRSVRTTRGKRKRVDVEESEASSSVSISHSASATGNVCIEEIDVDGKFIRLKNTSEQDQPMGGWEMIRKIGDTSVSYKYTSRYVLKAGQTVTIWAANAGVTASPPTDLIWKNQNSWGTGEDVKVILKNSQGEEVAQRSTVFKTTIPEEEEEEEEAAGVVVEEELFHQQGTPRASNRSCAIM
UniProt Q15345: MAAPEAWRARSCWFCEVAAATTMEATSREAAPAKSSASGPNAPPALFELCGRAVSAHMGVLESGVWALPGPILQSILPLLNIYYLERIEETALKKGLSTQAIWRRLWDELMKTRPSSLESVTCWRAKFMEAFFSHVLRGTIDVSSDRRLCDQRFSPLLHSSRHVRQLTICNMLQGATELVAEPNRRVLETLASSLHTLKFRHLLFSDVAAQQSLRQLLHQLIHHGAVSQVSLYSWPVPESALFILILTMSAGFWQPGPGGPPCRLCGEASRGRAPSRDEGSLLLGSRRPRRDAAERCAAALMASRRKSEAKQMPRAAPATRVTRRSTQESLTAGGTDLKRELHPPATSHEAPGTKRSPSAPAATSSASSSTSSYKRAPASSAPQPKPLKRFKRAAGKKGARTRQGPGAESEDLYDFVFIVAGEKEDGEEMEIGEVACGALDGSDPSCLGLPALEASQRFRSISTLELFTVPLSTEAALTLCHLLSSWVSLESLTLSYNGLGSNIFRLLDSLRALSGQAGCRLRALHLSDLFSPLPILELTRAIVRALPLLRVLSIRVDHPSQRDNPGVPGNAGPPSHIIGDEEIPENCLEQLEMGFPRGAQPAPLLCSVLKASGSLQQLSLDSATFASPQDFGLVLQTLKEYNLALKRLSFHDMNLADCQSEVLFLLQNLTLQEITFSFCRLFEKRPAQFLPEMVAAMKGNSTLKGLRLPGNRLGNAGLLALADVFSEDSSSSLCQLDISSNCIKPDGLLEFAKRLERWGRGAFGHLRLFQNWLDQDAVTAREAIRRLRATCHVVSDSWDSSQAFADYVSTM

Compound: CC1Cc2ccccc2N1C(=O)C1CCCN(C1)C(=O)CCl (mixture of isomers) [TRIM25 ligand 11 (diastereomer mixture)]
Experiment: probe-labelled cysteine peptide fold change vs DMSO (competition) (log2 fold change); higher = less target engagement (more negative = stronger competition)
Details: THP-1, incubation time: 4 h
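Also: competitive chemoproteomic profiling in live THP-1 cells with an iodoacetamide desthiobiotin (IA-DTB) probe, comparing probe-labelled peptide intensities in compound-treated cells against DMSO-treated controls.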

Row | Target | probe-labelled cysteine peptide fold change (10 µM) | probe-labelled cysteine peptide fold change (50 µM)
1 | LRRC47_Q8N1G4_249_MVSGCQTR (UniProt Q8N1G4) | -0.124 | -0.256
2 | LRCH1_Q9Y2L9_276_QLQVLLLENNPLQSPPAQICTK (UniProt Q9Y2L9) | -0.0442 | -0.147
3 | LIG1_P18858_508_QTFCEVPDLDRIIPVLLEHGLER (UniProt P18858) | -0.16 | -0.134
4 | LSM7_Q9UK45_76_QLGLVVCR (UniProt Q9UK45) | -0.069 | 0.165
5 | LRRC58_Q96CX6_119_GLAQSPLCR (UniProt Q96CX6) | -0.112 | -0.219
6 | LRP1_Q07954_2741_FCSEAQFECQNHR (UniProt Q07954) | 0.539 | 0.205
7 | LGALS9_O00182_102_GMPFDLCFLVQSSDFK (UniProt O00182) | -0.159 | 0.0536
8 | LIMS1_P48059_281_AWCVNCFACSTCNTK (UniProt P48059) | 0.0469 | 0.198
9 | LRRC8A_Q8IWT6_776_GNRLECLPVELGECPLLK (UniProt Q8IWT6) | -0.0935 | 0.00841
10 | LPP_Q93052_502_AYHPHCFTCVMCHR (UniProt Q93052) | 0.0432 | 0.142
11 | LMNB1_P20700_110_CKAEHDQLLLNYAK (UniProt P20700) | -0.194 | -0.0591
12 | LIG1_P18858_846_CADLSLSPIYPAAR (UniProt P18858) | -0.027 | 0.233
13 | LILRB4_Q8NHJ6_144_SVTLLCQSR (UniProt Q8NHJ6) | 0.0853 | 0.0442
14 | LDHD_Q86WU2_462_ALALHGTCTGEHGIGMGKR (UniProt Q86WU2) | -0.122 | -0.239
15 | LGALS9_O00182_316_GQSFSVWILCEAHCLK (UniProt O00182) | -0.0393 | 0.245
16 | LRRC41_Q15345_170_QLTICNMLQGATELVAEPNRR (UniProt Q15345) | -0.00572 | -0.064
17 | LRCH3_Q96II8_277_YLNIQACK (UniProt Q96II8) | 0.0779 | -0.276
18 | LPP_Q93052_499+502+505_AYHPHCFTCVMCHR (UniProt Q93052) | 0.0633 | 0.121
19 | LRSAM1_Q6UWE0_193+205_EVCGAGTAAILQFLCK (UniProt Q6UWE0) | 0.184 | 0.0853
20 | LIN9_Q5TKA1_435_CEEEAQEIVR (UniProt Q5TKA1) | 0.209 | 0.311
21 | LMNB1_P20700_198_CQSLTEDLEFR (UniProt P20700) | 0.0133 | 0.132
22 | LPXN_O60711_358_FHPEHFVCAFCLTQLSK (UniProt O60711) | -0.157 | -0.0688

Row | Target | probe-labelled cysteine peptide fold change (10 µM) | probe-labelled cysteine peptide fold change (50 µM)
23 | LRMP_Q12912_264_LLESLTPLCEDDNQAQEIIK (UniProt Q12912) | -0.0507 | -0.00778
24 | LSS_P48449_471_CPHVTEHIPR (UniProt P48449) | 0.0381 | -0.0782
25 | LPXN_O60711_152_GHCASCQKPIAGK (UniProt O60711) | -0.241 | -0.0669
26 | LEMD3_Q9Y2U8_814_CSDNDGIVHIAVDK (UniProt Q9Y2U8) | -0.067 | 0.127
27 | LSM12_Q3MHD2_151_NIVVMEEVVITPPYQVENCK (UniProt Q3MHD2) | -0.0712 | 0.0313
28 | LPIN1_Q14693_843_LCEVVDHVFPLLK (UniProt Q14693) | -0.0275 | 0.0716
29 | LIG3_P49916_929_AADETLCQTK (UniProt P49916) | 0.0879 | -0.117
30 | LRRC8C_Q8TDW0_599_MTNLTELELVHCDLER (UniProt Q8TDW0) | 0.076 | 0.0824
31 | LONP2_Q86WA8_405_IALGGVCDQSDIR (UniProt Q86WA8) | 0.166 | 0.188
32 | LIMS1_P48059_240+252+255_GLAYCETHYNQLFGDVCFHCNR (UniProt P48059) | -0.0958 | -0.0831
33 | LSG1_Q9H089_547_LLYCHPPPGRDPVTFQHQHQR (UniProt Q9H089) | -0.272 | -0.257
34 | LIMK2_P53671_365_CDEETQK (UniProt P53671) | 0.0225 | -0.0271
35 | LRRC8A_Q8IWT6_57_MICLPCK (UniProt Q8IWT6) | -0.00487 | 0.0461
36 | LLGL1_Q15334_1059_NLAEDEAHACAILIK (UniProt Q15334) | 0.0189 | -0.322
37 | LMNB2_Q03252_212_CQSLQEELDFRK (UniProt Q03252) | -0.019 | -0.0559
38 | LRRK2_Q5S007_1187_FSCIPEAILNLPHLR (UniProt Q5S007) | -0.0746 | -0.134
39 | LRRC47_Q8N1G4_390_GPLLYCARPPQDLK (UniProt Q8N1G4) | -0.116 | -0.123
40 | LSM14A_Q8ND56_375_SFFDNISCDDNR (UniProt Q8ND56) | -0.0884 | -0.473
41 | LIG4_P49917_747_FMIHMCPSTK (UniProt P49917) | -0.112 | -0.213
42 | LMAN1_P49257_230_NDYEFCAK (UniProt P49257) | 0.433 | 0.345
43 | LSP1_P33241_36_AEASSDPGAEEREELLGPTAQWSVEDEEEAVHEQCQHER (UniProt P33241) | 0.183 | 0.233
44 | LMNA_P02545_591_TVLCGTCGQPADK (UniProt P02545) | -0.0274 | -0.15

Row | Target | probe-labelled cysteine peptide fold change (10 µM) | probe-labelled cysteine peptide fold change (50 µM)
45 | LPP_Q93052_566_IVALDRDFHVHCYR (UniProt Q93052) | -0.000226 | 0.00613
46 | LILRA2_Q8N149_49_CQGSLQAEEYHLYR (UniProt Q8N149) | -0.0373 | -0.0351
47 | LRCH3_Q96II8_148_NQLSTLPVHLCNLPLK (UniProt Q96II8) | -0.0579 | 0.08
48 | LRPPRC_P42704_208_LIASYCNVGDIEGASK (UniProt P42704) | -0.0272 | 0.141
49 | LRCH1_Q9Y2L9_421_AEDCEELLR (UniProt Q9Y2L9) | -0.00975 | 0.0131
50 | LGALS1_P09382_61_FNAHGDANTIVCNSK (UniProt P09382) | 0.00552 | -0.0727
51 | LRRC41_Q15345_123_TRPSSLESVTCWR (UniProt Q15345) | -0.16 | 0.158
52 | LIN9_Q5TKA1_435_RCEEEAQEIVR (UniProt Q5TKA1) | -0.0311 | -0.145
53 | LIG4_P49917_855_VVSCLAEGVSHVIIGEDHSR (UniProt P49917) | -0.00498 | -0.031
54 | LGALS3BP_Q08380_561_STSSFPCPAGHFNGFR (UniProt Q08380) | -0.133 | -0.0375
55 | LRCH1_Q9Y2L9_292_YLSIQACQIK (UniProt Q9Y2L9) | -0.0736 | 0.0679
56 | LRCH3_Q96II8_102_LSEIPIEACHFVSLENLNLYQNCIR (UniProt Q96II8) | -0.197 | 0.0515
57 | LPCAT4_Q643R3_304_VMAQALGIPATECEFVGSLPVIVVGR (UniProt Q643R3) | -0.164 | 0.393
58 | LRCH4_O75427_224_IPVSFCR (UniProt O75427) | 0.0332 | 0.297
59 | LRCH4_O75427_88_NRFPEVPEAACQLVSLEGLSLYHNCLR (UniProt O75427) | -0.0264 | -0.15
60 | LGALS9_O00182_259_FHINLCSGNHIAFHLNPR (UniProt O00182) | -0.18 | -0.0929
61 | LIG3_P49916_336_IFNCNPDDMAR (UniProt P49916) | -0.00217 | 0.0218
62 | LIG1_P18858_719_DSCEGLMVK (UniProt P18858) | -0.119 | -0.189
63 | LRRC47_Q8N1G4_190_PGALPLLSELAAADNCLR (UniProt Q8N1G4) | -0.132 | -0.0541
64 | LRBA_P50851_2675_CSGIGDNPGSETAAPR (UniProt P50851) | -0.17 | 0.157
65 | LDHD_Q86WU2_462_ALALHGTCTGEHGIGMGK (UniProt Q86WU2) | -0.00991 | -0.0249
66 | LMAN2L_Q9H0V9_200_DGRPTELGGCTAIVR (UniProt Q9H0V9) | 0.0851 | 0.019

Some of the entries so far, as tab-separated lines:
Row	Target	probe-labelled cysteine peptide fold change (10 µM)	probe-labelled cysteine peptide fold change (50 µM)
62	LIG1_P18858_719_DSCEGLMVK (UniProt P18858)	-0.119	-0.189
63	LRRC47_Q8N1G4_190_PGALPLLSELAAADNCLR (UniProt Q8N1G4)	-0.132	-0.0541
64	LRBA_P50851_2675_CSGIGDNPGSETAAPR (UniProt P50851)	-0.17	0.157
65	LDHD_Q86WU2_462_ALALHGTCTGEHGIGMGK (UniProt Q86WU2)	-0.00991	-0.0249

Next results.

Row | Target | probe-labelled cysteine peptide fold change (10 µM) | probe-labelled cysteine peptide fold change (50 µM)
67 | LIG3_P49916_729_CAGGHDDATLAR (UniProt P49916) | 0.0492 | 0.0111
68 | LEMD2_Q8NC56_253_LLPVDCER (UniProt Q8NC56) | 0.0793 | 0.082
69 | LRWD1_Q9UFC0_281_LEPLHFLQCHSK (UniProt Q9UFC0) | -0.121 | -0.0558
70 | LIMS1_P48059_219_QWHVEHFVCAK (UniProt P48059) | -0.107 | 0.00751
71 | LENG8_Q96PV6_643_GDHEEFNQCQTQLK (UniProt Q96PV6) | 0.132 | 0.0994
72 | LRRC14_Q15048_109_LHTSEPGASTQPLCR (UniProt Q15048) | 0.131 | -0.177
73 | LDLR_P01130_377_CQCEEGFQLDPHTK (UniProt P01130) | 0.0779 | 0.0753
74 | LMNB2_Q03252_212_CQSLQEELDFR (UniProt Q03252) | 0.21 | 0.184
75 | LIMS1_P48059_300_FVEFDMKPVCK (UniProt P48059) | -0.0288 | -0.0901
76 | LRP1_Q07954_3021_GGDPHSCK (UniProt Q07954) | 0.15 | 0.116
77 | LRRFIP1_Q32MZ4_726_SEDADRCTLPEHESPSQDISDACEAESTER (UniProt Q32MZ4) | 0.0357 | -0.442
78 | LSS_P48449_616_ACDFLLSR (UniProt P48449) | 0.0702 | -0.00256
79 | LPXN_O60711_155_GHCASCQK (UniProt O60711) | 0.00581 | 0.145
80 | LRRC58_Q96CX6_131_SLQVLNLSGNCFQEVPASLLELR (UniProt Q96CX6) | -0.0261 | -0.0833
81 | LPXN_O60711_178_VIHALGQSWHPEHFVCTHCK (UniProt O60711) | 0.0349 | -0.142
82 | LPXN_O60711_178+181_VIHALGQSWHPEHFVCTHCK (UniProt O60711) | 0.141 | -0.186
83 | LRPPRC_P42704_113_VFNDTCR (UniProt P42704) | -0.0606 | 0.0708
84 | LIG4_P49917_20_AASQTSQTVASHVPFADLCSTLER (UniProt P49917) | -0.176 | 0.168
85 | LIG3_P49916_499_KCPNGMFSEIK (UniProt P49916) | -0.139 | -0.327
